Experimental data published in paper doi:10.1101/828806.

Sequences of proteins named here, by UniProt entry; tags and fusion partners are left off. A change or cut given only in a name is not applied to a line headed by its entry.
UniProt P18206: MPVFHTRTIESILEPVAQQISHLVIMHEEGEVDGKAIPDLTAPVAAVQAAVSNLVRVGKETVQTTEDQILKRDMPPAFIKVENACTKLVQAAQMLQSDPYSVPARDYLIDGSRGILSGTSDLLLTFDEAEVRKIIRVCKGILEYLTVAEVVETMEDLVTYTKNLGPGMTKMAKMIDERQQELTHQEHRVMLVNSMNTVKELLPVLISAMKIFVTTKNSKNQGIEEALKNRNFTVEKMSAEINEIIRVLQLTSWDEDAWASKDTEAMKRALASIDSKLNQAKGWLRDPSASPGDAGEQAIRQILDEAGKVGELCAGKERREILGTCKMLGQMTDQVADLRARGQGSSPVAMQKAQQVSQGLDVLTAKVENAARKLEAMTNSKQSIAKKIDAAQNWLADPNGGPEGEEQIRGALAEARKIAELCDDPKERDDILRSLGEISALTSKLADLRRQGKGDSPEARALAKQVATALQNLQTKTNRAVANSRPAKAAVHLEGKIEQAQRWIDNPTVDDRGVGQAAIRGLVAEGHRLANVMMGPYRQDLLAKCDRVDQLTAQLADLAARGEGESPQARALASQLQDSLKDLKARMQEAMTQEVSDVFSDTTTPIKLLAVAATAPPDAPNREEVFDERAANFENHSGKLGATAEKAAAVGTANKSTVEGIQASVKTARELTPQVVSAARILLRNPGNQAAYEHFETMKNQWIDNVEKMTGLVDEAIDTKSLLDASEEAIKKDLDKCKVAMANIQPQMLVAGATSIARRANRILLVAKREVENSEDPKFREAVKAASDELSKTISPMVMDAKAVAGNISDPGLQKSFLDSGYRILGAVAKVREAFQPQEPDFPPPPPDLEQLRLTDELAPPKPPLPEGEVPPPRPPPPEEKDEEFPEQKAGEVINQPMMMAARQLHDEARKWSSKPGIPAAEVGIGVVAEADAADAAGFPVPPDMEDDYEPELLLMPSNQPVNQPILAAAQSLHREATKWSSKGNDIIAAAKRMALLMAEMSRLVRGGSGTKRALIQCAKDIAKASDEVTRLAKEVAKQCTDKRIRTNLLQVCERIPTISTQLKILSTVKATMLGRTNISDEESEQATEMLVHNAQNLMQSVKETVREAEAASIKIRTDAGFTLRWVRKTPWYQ
UniProt Q9UGP4: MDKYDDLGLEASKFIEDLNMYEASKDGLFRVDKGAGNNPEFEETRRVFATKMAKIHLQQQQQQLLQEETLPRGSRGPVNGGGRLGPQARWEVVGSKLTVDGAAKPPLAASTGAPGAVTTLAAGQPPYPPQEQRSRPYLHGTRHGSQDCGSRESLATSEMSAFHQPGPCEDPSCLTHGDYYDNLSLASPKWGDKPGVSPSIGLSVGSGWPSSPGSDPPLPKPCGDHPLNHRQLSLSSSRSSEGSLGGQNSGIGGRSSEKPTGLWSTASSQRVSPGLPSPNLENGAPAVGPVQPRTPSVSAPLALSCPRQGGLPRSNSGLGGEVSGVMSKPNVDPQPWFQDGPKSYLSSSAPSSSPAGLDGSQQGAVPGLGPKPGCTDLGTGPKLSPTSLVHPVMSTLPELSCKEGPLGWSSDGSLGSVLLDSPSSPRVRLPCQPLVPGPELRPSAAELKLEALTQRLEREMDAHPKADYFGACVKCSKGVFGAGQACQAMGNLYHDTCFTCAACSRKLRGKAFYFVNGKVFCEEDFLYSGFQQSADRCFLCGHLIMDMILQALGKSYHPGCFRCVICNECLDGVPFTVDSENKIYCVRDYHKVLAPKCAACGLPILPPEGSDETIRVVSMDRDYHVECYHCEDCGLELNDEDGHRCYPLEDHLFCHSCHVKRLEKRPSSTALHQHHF

Biological target: vinculin-AcGFP (human) (UniProt P18206)
Assay: co-IP

binding: binds
Substance: Limd1-mCherry (from UniProt Q9UGP4 1-676)

Results are given in words; binding and its absence hold for the method and conditions named. Binding seen in cells or lysates may run through a third protein. Binding can be weak; no strength is given.
